Experimental data: the supplement of paper PMC8728848
This is one part of the list.

How the values were obtained:
Test in all cases: glycan array binding signal (z-score within array); higher = stronger binding
Conditions in all cases: glycan notation: IUPAC condensed, linker removed
[1] = target: Neu5Ac(a2-6)Gal(b1-4)GlcNAc(b1-2)Man(a1-3)[Man(a1-6)]Man(b1-4)GlcNAc(b1-4)GlcNAc
How it was run: (§1)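 Glycan array binding is given as a within-array Z-score, which can be read as non-binding when negative. The arrays, 3228 of them, came from the Consortium for Functional Glycomics database and were retained only where the protein sequence was available. Z-scores were averaged across arrays of the same protein sequence at different concentrations or buffers and across linkers.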

[2] = target: Neu5Ac(a2-6)Gal(b1-4)GlcNAc(b1-2)Man(a1-3)[Neu5Ac(a2-3)Gal(b1-4)GlcNAc(b1-2)Man(a1-6)]Man(b1-4)GlcNAc(b1-4)GlcNAc
How it was run: as §1

[3] = target: Neu5Ac(a2-6)Gal(b1-4)GlcNAc(b1-2)Man(a1-3)[Neu5Ac(a2-6)Gal(b1-4)GlcNAc(b1-2)Man(a1-6)]Man(b1-4)GlcNAc(b1-4)GlcNAc
How it was run: as §1

[4] = target: Neu5Ac(a2-6)Gal(b1-4)GlcNAc(b1-2)Man(a1-3)[Neu5Ac(a2-6)Gal(b1-4)GlcNAc(b1-2)Man(a1-6)]Man(b1-4)GlcNAc(b1-4)[Fuc(a1-6)]GlcNAc
How it was run: as §1

[5] = target: Neu5Ac(a2-6)Gal(b1-4)GlcNAc(b1-2)Man(a1-6)Man(b1-4)GlcNAc(b1-4)GlcNAc
How it was run: as §1

[6] = target: Neu5Ac(a2-6)Gal(b1-4)GlcNAc(b1-2)Man(a1-6)[Gal(b1-4)GlcNAc(b1-2)Man(a1-3)]Man(b1-4)GlcNAc(b1-4)GlcNAc
How it was run: as §1

[7] = target: Neu5Ac(a2-6)Gal(b1-4)GlcNAc(b1-2)Man(a1-6)[GlcNAc(b1-2)Man(a1-3)]Man(b1-4)GlcNAc(b1-4)GlcNAc
How it was run: as §1

[8] = target: Neu5Ac(a2-6)Gal(b1-4)GlcNAc(b1-2)Man(a1-6)[Man(a1-3)]Man(b1-4)GlcNAc(b1-4)GlcNAc
How it was run: as §1

[9] = target: Neu5Ac(a2-6)Gal(b1-4)GlcNAc(b1-2)[Neu5Ac(a2-6)Gal(b1-4)GlcNAc(b1-4)]Man(a1-3)[GlcNAc(b1-4)][Neu5Ac(a2-6)Gal(b1-4)GlcNAc(b1-2)[Neu5Ac(a2-6)Gal(b1-4)GlcNAc(b1-6)]Man(a1-6)]Man(b1-4)GlcNAc(b1-4)GlcNAc
How it was run: as §1

[10] = target: Neu5Ac(a2-6)Gal(b1-4)GlcNAc(b1-2)[Neu5Ac(a2-6)Gal(b1-4)GlcNAc(b1-4)]Man(a1-3)[GlcNAc(b1-4)][Neu5Ac(a2-6)Gal(b1-4)GlcNAc(b1-4)Man(a1-6)]Man(b1-4)GlcNAc(b1-4)GlcNAc
How it was run: as §1

[11] = target: Neu5Ac(a2-6)Gal(b1-4)GlcNAc(b1-2)[Neu5Ac(a2-6)Gal(b1-4)GlcNAc(b1-6)]Man(a1-6)[Neu5Ac(a2-6)Gal(b1-4)GlcNAc(b1-2)Man(a1-3)][GlcNAc(b1-4)]Man(b1-4)GlcNAc(b1-4)GlcNAc
How it was run: as §1

[12] = target: Neu5Ac(a2-6)Gal(b1-4)GlcNAc(b1-3)Gal(b1-3)GlcNAc
How it was run: as §1

[13] = target: Neu5Ac(a2-6)Gal(b1-4)GlcNAc(b1-3)Gal(b1-4)GlcNAc
How it was run: as §1

[14] = target: Neu5Ac(a2-6)Gal(b1-4)GlcNAc(b1-3)Gal(b1-4)GlcNAc(b1-2)Man(a1-3)[Neu5Ac(a2-6)Gal(b1-4)GlcNAc(b1-3)Gal(b1-4)GlcNAc(b1-2)Man(a1-6)]GalNAc
How it was run: as §1

[15] = target: Neu5Ac(a2-6)Gal(b1-4)GlcNAc(b1-3)Gal(b1-4)GlcNAc(b1-3)Gal(b1-4)GlcNAc
How it was run: as §1

[16] = target: Neu5Ac(a2-6)Gal(b1-4)GlcNAc(b1-3)Gal(b1-4)GlcNAc(b1-3)Gal(b1-4)GlcNAc(b1-2)Man(a1-3)[Neu5Ac(a2-6)Gal(b1-4)GlcNAc(b1-3)Gal(b1-4)GlcNAc(b1-3)Gal(b1-4)GlcNAc(b1-2)Man(a1-6)]GalNAc
How it was run: as §1

[17] = target: Neu5Ac(a2-6)Gal(b1-4)GlcNAc(b1-3)Gal(b1-4)GlcNAc(b1-3)GalNAc
How it was run: as §1

[18] = target: Neu5Ac(a2-6)Gal(b1-4)GlcNAc(b1-3)Gal(b1-4)GlcNAc(b1-3)[Neu5Ac(a2-6)Gal(b1-4)GlcNAc(b1-3)Gal(b1-4)GlcNAc(b1-6)]GalNAc
How it was run: as §1

[19] = target: Neu5Ac(a2-6)Gal(b1-4)GlcNAc(b1-3)Gal(b1-4)GlcNAc(b1-6)[Gal(b1-3)]GalNAc
How it was run: as §1

[20] = target: Neu5Ac(a2-6)Gal(b1-4)GlcNAc(b1-3)Gal(b1-4)[Fuc(a1-3)]GlcNAc(b1-3)Gal(b1-4)[Fuc(a1-3)]GlcNAc
How it was run: as §1

[21] = target: Neu5Ac(a2-6)Gal(b1-4)GlcNAc(b1-3)GalNAc
How it was run: as §1

[22] = target: Neu5Ac(a2-6)Gal(b1-4)GlcNAc(b1-3)[Neu5Ac(a2-6)Gal(b1-4)GlcNAc(b1-6)]GalNAc
How it was run: as §1

[23] = target: Neu5Ac(a2-6)Gal(b1-4)GlcNAc(b1-6)GalNAc
How it was run: as §1

[24] = target: Neu5Ac(a2-6)Gal(b1-4)GlcNAc(b1-6)[Gal(b1-3)GlcNAc(b1-3)]Gal(b1-4)Glc
How it was run: as §1

[25] = target: Neu5Ac(a2-6)Gal(b1-4)GlcNAc(b1-6)[Gal(b1-3)]GalNAc
How it was run: as §1

[26] = target: Neu5Ac(a2-6)Gal(b1-4)GlcNAc6S
How it was run: as §1

[27] = target: Neu5Ac(a2-6)GalNAc
How it was run: as §1

[28] = target: Neu5Ac(a2-6)GalNAc(b1-4)GlcNAc
How it was run: as §1

[29] = target: Neu5Ac(a2-6)GalNAc(b1-4)GlcNAc6S
How it was run: as §1

[30] = target: Neu5Ac(a2-6)GlcNAc(b1-4)GlcNAc
How it was run: as §1

[31] = target: Neu5Ac(a2-6)GlcNAc(b1-4)GlcNAc(b1-4)GlcNAc
How it was run: as §1

B1: pTFF2 (Sus scrofa), P01359 (protein)
chain: KPAACRCSRQDPKNRVNCGFPGITSDQCFTSGCCFDSQVPGVPWCFKPLPAQESEECVMEVSARKNCGYPGISPEDCAARNCCFSDTIPEVPWCFFPMSVEACHY
[1]
  glycan array binding signal (z-score): 0.559
[2]
  glycan array binding signal (z-score): 0.014
[3]
  glycan array binding signal (z-score): -0.527
[4]
  glycan array binding signal (z-score): -0.537
[5]
  glycan array binding signal (z-score): 2.29
[6]
  glycan array binding signal (z-score): -1.52
[7]
  glycan array binding signal (z-score): 1.67
[8]
  glycan array binding signal (z-score): 0.929
[9]
  glycan array binding signal (z-score): -0.223
[10]
  glycan array binding signal (z-score): 0.367
[11]
  glycan array binding signal (z-score): 0.131
[12]
  glycan array binding signal (z-score): 0.025
[13]
  glycan array binding signal (z-score): -0.457
[14]
  glycan array binding signal (z-score): -0.935
[15]
  glycan array binding signal (z-score): 0.37
[16]
  glycan array binding signal (z-score): 1.1
[17]
  glycan array binding signal (z-score): -0.411
[18]
  glycan array binding signal (z-score): -0.057
[19]
  glycan array binding signal (z-score): -0.859
[20]
  glycan array binding signal (z-score): -0.633
[21]
  glycan array binding signal (z-score): -0.33
[22]
  glycan array binding signal (z-score): 0.528
[23]
  glycan array binding signal (z-score): 1.75
[24]
  glycan array binding signal (z-score): -0.007
[25]
  glycan array binding signal (z-score): -0.634
[26]
  glycan array binding signal (z-score): -1.45
[27]
  glycan array binding signal (z-score): -0.649
[28]
  glycan array binding signal (z-score): -0.29
[29]
  glycan array binding signal (z-score): -0.449
[30]
  glycan array binding signal (z-score): 0.213
[31]
  glycan array binding signal (z-score): -1.29
